Laboratory results: PubChem BioAssay AID1259254 (NCATS, 2017)
Test: 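Gene knock-downs that lead to re-replication, shown by excess G2 DNA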 (primary screen). System: human HCT116 colorectal cancer cells. Reagents: single siRNA against human genes. Time to read-out: 3 days. Measurement: 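Nuclei stained with Hoechst and imaged; cell-cycle phase assigned by DNA content; G2 share scaled per plate, non-targeting siRNA 0%, GMNN siRNA 100%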. Scale: G2 robust z-score: higher = more G2 cells, more excess DNA replication. Active means: 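Active siRNAs have a G2 robust z of 5 or more median absolute deviations over the median, which in these data means about 38% or higher of GMNN control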.
Here is one part, drawn at random, of about 59,000 reagents. Of all reagents, about 1,550 (2.6%) were called active. 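G2 share is only a proxy for re-replication; each gene was hit by three separate siRNAs, and active genes were retested.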 The numbers tell different reagents against one gene apart. Not all columns of the deposit are shown. No sequences are given here. Not stated in the record: the amount of reagent.

EIF3J-DT (EIF3J divergent transcript) #1 gave G2 robust z-score -0.184; inactive.
EIF3J-DT (EIF3J divergent transcript) #2 showed G2 robust z-score -0.361; inactive.
EIF3J-DT (EIF3J divergent transcript) #3 showed G2 robust z-score 0.173; inactive.
Against NEK6 (NIMA related kinase 6) #1 the deposit lists G2 robust z-score -0.947; inactive.
Against NEK6 (NIMA related kinase 6) #2, the entry reads G2 robust z-score -0.793; inactive.
Silencing of NEK6 (NIMA related kinase 6) #3 came out at: G2 robust z-score -0.558; inactive.
For CTDSPL (CTD small phosphatase like) #1 the deposit lists G2 robust z-score 0.623; inactive.
Against CTDSPL (CTD small phosphatase like) #2, the values are G2 robust z-score 1.8; inactive.
With knock-down of CTDSPL (CTD small phosphatase like) #3, the record shows G2 robust z-score -0.999; inactive.
After knock-down of PLB1 (phospholipase B1) #1, the screen gave G2 robust z-score -1.19; inactive.
Against PLB1 (phospholipase B1) #2, the values are G2 robust z-score -0.337; inactive.
Against PLB1 (phospholipase B1) #3, the values are G2 robust z-score 1.56; inactive.
Knock-down of VSTM4 (V-set and transmembrane domain containing 4) #1 came out at: G2 robust z-score -0.571; inactive.
VSTM4 (V-set and transmembrane domain containing 4) #2 gave G2 robust z-score -0.291; inactive.
VSTM4 (V-set and transmembrane domain containing 4) #3 scored G2 robust z-score 0.284; inactive.
For FUNDC2P2 (FUN14 domain containing 2 pseudogene 2) #1 the deposit lists G2 robust z-score 1.44; inactive.
Knock-down of FUNDC2P2 (FUN14 domain containing 2 pseudogene 2) #2 came out at: G2 robust z-score -0.0448; inactive.
FUNDC2P2 (FUN14 domain containing 2 pseudogene 2) #3 showed G2 robust z-score -0.454; inactive.

2 entries from above in another layout:
EIF3J-DT (EIF3J divergent transcript) #3
- G2 robust z-score: 0.173
- Call: inactive

NEK6 (NIMA related kinase 6) #1
- G2 robust z-score: -0.947
- Call: inactive
